Consider two sequences from patent publication US20200224207.

The exact form of at least one protein or probe is not confirmed. For some assays here: Where a protein sequence is shown, tags need not be part of it.

Test in all cases: activity assay
In data set [1] the target is RecA wild-type (Escherichia coli) (UniProt P0A7G6). Conditions: control; 10-fragment joining, exonuclease III 80 mU/uL and exonuclease I, 42 C; functional assay; purified recombinant protein.
The target of another data set is UvsX (Bacteriophage T4) (UniProt P04529). Conditions: 1 or 3 uM UvsX, exonuclease III 80 mU/uL and exonuclease I, 1 mM Mg acetate, 42 C; 10-fragment joined body as with RecA; promoted by UvsY (Example 25); purified recombinant protein.
The target in the next data set is T1, Exonuclease I (UniProt P04995).
T1 sequence (looked up, limits assumed): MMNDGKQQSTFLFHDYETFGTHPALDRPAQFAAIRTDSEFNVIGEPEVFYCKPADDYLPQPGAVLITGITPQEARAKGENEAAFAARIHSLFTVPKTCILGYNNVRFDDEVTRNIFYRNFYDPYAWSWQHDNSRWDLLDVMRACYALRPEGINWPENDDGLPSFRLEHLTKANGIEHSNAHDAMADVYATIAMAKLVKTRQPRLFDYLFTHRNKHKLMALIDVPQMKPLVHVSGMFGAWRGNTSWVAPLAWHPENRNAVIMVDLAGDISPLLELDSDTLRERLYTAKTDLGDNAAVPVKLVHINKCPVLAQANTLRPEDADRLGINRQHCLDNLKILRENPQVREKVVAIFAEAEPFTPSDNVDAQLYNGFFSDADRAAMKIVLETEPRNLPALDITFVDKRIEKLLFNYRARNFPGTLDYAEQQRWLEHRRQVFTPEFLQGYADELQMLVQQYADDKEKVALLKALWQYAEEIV
The settings on record: exonuclease I dose-dependently promotes joining of DCW1-10 by RecA and exonuclease III, 42 C; indirect assay; purified recombinant protein.

In data set [2] the target is RecA F203W mutant (Escherichia coli) (UniProt P0A7G6). The settings on record: joining of DCW1-25 with exonuclease III, higher joining efficiency than wild-type RecA; 1 mM Mg acetate, 100 uM ATP, 42 C; functional assay; purified recombinant protein.
The target in another data set is T2, Exonuclease III (UniProt P09030).
T2 sequence (looked up, limits assumed): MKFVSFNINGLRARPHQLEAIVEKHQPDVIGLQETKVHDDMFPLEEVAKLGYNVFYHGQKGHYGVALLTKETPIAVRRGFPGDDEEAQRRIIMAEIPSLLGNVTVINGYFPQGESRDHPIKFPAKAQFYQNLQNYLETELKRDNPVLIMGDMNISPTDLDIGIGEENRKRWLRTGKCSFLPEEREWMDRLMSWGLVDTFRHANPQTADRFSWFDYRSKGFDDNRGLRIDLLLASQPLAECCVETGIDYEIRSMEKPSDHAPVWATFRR
The settings on record: exonuclease III 80-160 mU/uL gives 7-fragment joined body in 15 min, 20 mU/uL almost none; with RecA, 42 C; indirect assay; purified recombinant protein.

As for “ATATCATTGGCGTGGGCAGCTGCCCGTCGCGTGGTATGGATAAAGGCGGGGTGAACGACCTCGAATCCGTGGTCAAGTGCGTACAACGCGCCATTGACCAGGCAGAATTGATGGCAGATTGTCAGATCTCTTCGGTATATCTGGCGCTTTCTGGTAAGCACATCAGCTGCCAGAATGAAATTGGTATGGTGCCTATTTCTGAAGAAGAAGTGACGCAAGAAGATGTGGAAAACGTCGTCCATACCGCGAAATCGGTGCGTGTGCGCGATGAGCATCGTGTGCTGCATGTGATCCCGCAAGAGTATGCGATTGACTATCAGGAAGGGATCAAGAATCCGGTAGGACTTTCGGGCGTGCGGATGCAGGCAAAAGTGCACCTGATCACATGTCACAACGATATGGCGAAAAACATCGTCAAAGCGGTTGAACGTTGTGGGCTGAAAGTTGACCAACTGATATTTGCCGGACTGGCATCAAGTTATTCGGTATTGACGGAAGATGAACGTGAACTGGGTGTCTGCGTCGTCGATATCGGTGGTGGTACAATGGATATCGCCGTTTATACCGGTGGGGCATTGCGCCACACTAAGG (double strand) [DCW34 (representative of DCW34-DCW43 set)]”, the “activity on this sequence” value (in data set [1]; with UvsX (Bacteriophage T4)) was “active” in each case.

Take “TTCTAAAACCGTGACTGCGGATATCCCGATTGTGGGGGATGCTCGCCAGGTCCTCGAACAAATGCTTGAACTCTTGTCGCAAGAATCCGCCCATCAACCACTGGATGAGATCCGCGACTGGTGGCAGCAAATTGAACAGTGGCGCGCTCGTCAGTGCCTGAAATATGACACTCACAGTGAAAAGATTAAACCGCAGGCGGTGATCGAGACTCTTTGGCGGTTGACGAAGGGAGACGCTTACGTGACGTCCGATGTCGGGCAGCACCAGATGTTTGCTGCACTTTATTATCCATTCGACAAACCGCGTCGCTGGATCAATTCCGGTGGCCTCGGCACGATGGGTTTTGGTTTACCTGCGGCACTGGGCGTCAAAATGGCGTTGCCAGAAGAAACCGTGGTTTGCGTCACTGGCGACGGCAGTATTCAGATGAACATCCAGGAACTGTCTACCGCGTTGCAATACGAGTTGCCCGTACTGGTGGTGAATCTCAATAACCGCTATCTGGGGATGGTGAAGCAGTGGCAGGACATGATCTATTCCGGCCGTCATTCACAATCTTATATGCAATCGCTACCCGATTTCGTCCGTCT (double strand) [DCW1 (representative of DCW1-DCW7/10/25/49 fragment set)]”: the “activity on this sequence” value (with Exonuclease I; in data set [2]; in the data set with Exonuclease III) was “active” each time.
